# Data published in patent US7528140B2, “Substituted pyrrolo[3,2-d]pyrimidines as glycogen synthase kinase (GSK) inhibitors” (Teijin Limited, priority 2002, dated 2009).
# By UniProt entry, the sequences of proteins in these tests, tags left out. Where a name states a change or a piece, a line headed by the entry shows the natural chain unless it says otherwise.
# UniProt P49841: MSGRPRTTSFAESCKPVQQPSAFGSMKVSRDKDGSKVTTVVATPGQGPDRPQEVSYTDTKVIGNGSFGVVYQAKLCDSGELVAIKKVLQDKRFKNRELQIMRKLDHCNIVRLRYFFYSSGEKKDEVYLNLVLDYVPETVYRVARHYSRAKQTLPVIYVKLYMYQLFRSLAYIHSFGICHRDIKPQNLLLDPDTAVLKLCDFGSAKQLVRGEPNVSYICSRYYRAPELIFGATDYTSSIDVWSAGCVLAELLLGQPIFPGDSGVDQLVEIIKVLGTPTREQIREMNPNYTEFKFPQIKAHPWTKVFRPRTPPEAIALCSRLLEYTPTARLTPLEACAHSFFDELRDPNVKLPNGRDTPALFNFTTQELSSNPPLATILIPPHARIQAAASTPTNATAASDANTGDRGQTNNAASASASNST
# pIC50: −log10 of the molar value. Some of these results come from one statement about several compounds together. At least one compound was matched to its structure with a doubt left.
# Molecular target: recombinant human GSK-3β (Homo sapiens, UniProt P49841)
# Experiment: Measurement of GSK-3 enzyme activity inhibition (32P phosphorylation of phospho-glycogen synthase peptide-2)
# Assay type: biochemical
# Settings: 20 μM ATP, 20 minutes at room temperature, read-out: GSK-3 enzyme inhibiting activity (IC50)
# Procedure: Measurement of GSK-3 Enzyme Activity Inhibition
# After adding 25 μL of phospho-glycogen synthase peptide-2 substrate solution [6 μM phospho -glycogen synthase peptide-2, 20 μM ATP, 16 mM MOPS buffer (pH 7.0), 0.2 mM EDTA, 20 mM magnesium acetate, 0.1 μCi [γ-^32P]ATP (specific activity: approximately 110 TBq/mmol)]to 5 μL of the test compound using 5% dimethylsulfoxide as the solvent, reaction was initiated by further addition of 20 μL of a GSK-3β enzyme solution [10 mU recombinant human GSK-3β, 20 mM MOPS buffer (pH 7.0), 1 mM EDTA, 0.1% polyoxyethylene lauryl ether (23 Lauryl Ether; Brij 35), 5% glycerol, 0.1% β-mercaptoethanol]. After conducting the reaction for 20 minutes at room temperature, an equivalent volume of a 200 mM phosphoric acid solution was added to quench the reaction, and 90 μL of the reaction product was adsorbed onto a MultiScreen PH plate (Millipore) and rinsed with a 100 mM phosphoric acid solution. After drying the plate, 30 μL of Micro Scint-O (Packard BioScience) was added, and the cpm was measured with a scintillation counter to determine the inhibiting activity. Phospho GS Peptide2 is […]P)-Glu-Asp-Glu-Glu-Glu (SEQ ID NO:1).
row,SMILES,pIC50
1,N#Cc1c(C2CC2)n(Cc2ccccc2)c2c(=S)[nH]cnc12 [1-0304],5.00 to 6.00
2,Cc1ccc(-c2noc(CCn3c(-c4ccccc4)c(C#N)c4nc[nH]c(=S)c43)n2)cc1 [1-0493],5.00 to 6.00
3,N#Cc1c(-c2ccccc2)n(CCNC(=O)c2ccc(F)cc2)c2c(=O)[nH]cnc12 [2-1948],5.00 to 6.00
4,N#Cc1c(-c2ccccc2)n(CC(c2ccccc2)c2ccccc2)c2c(=S)[nH]cnc12 [1-0328],5.00 to 6.00
5,Cc1ccsc1-c1c(C#N)c2nc[nH]c(=S)c2n1CCNC(=O)c1ccccc1 [2-0560],> 8.00
6,CCOCCCn1c(Cc2ccccc2)c(C#N)c2nc[nH]c(=S)c21 [1-0233],5.00 to 6.00
7,N#Cc1c(-c2cccc(C=O)c2)[nH]c2c(=O)[nH]cnc12 [1-0052],5.00 to 6.00
8,CC(=O)c1ccc(O)c(C(=O)NCCn2c(-c3ccccc3)c(C#N)c3nc[nH]c(=S)c32)c1 [2-1128],5.00 to 6.00
9,CC(=O)c1ccccc1-c1[nH]c2c(=O)[nH]cnc2c1C#N [1-0061],5.00 to 6.00
10,COc1ccc(C(=O)NCCn2c(-c3sccc3Cl)c(C#N)c3nc[nH]c(=S)c32)cc1OC [2-1057],> 8.00
11,CC(C)Cc1c(C#N)c2nc[nH]c(=S)c2n1CCCc1ccccc1 [1-0316],5.00 to 6.00
12,COC(=O)c1ccc(C(=O)OCCCn2c(-c3ccccc3)c(C#N)c3nc[nH]c(=O)c32)cc1 [2-0529],5.00 to 6.00
13,Cc1ccccc1NC(=O)CCn1c(-c2ccccc2)c(C#N)c2nc[nH]c(=S)c21 [3-0081],5.00 to 6.00
14,COc1ccc(C(=O)NCCn2c(-c3occc3C)c(C#N)c3nc[nH]c(=S)c32)cc1 [2-0596],> 8.00
15,N#Cc1c(-c2ccccc2)n(CCCNC(=O)c2cccnc2)c2c(=O)[nH]cnc12 [2-0093],5.00 to 6.00
16,CCN(CC)CCN(C)C(=O)CCn1c(-c2ccccc2)c(C#N)c2nc[nH]c(=S)c21 [3-1787],5.00 to 6.00
17,Cn1cccc1-c1c(C#N)c2nc[nH]c(=S)c2n1CCNC(=O)c1ccccc1N [2-0618],> 8.00
18,N#Cc1c(CCc2ccccc2)n(CCCc2ccccc2)c2c(=O)[nH]cnc12 [1-0325],5.00 to 6.00
19,N#Cc1c(-c2ccccc2)n(CCCOC(=O)c2ccncc2)c2c(=O)[nH]cnc12 [2-0537],5.00 to 6.00
20,N#Cc1c(-c2cccc(CO)c2)[nH]c2c(=O)[nH]cnc12 [1-0073],5.00 to 6.00
21,N#Cc1c(-c2ccccc2)n(Cc2ccco2)c2c(=S)[nH]cnc12 [1-0394],5.00 to 6.00

row,SMILES,pIC50
1,CC(C)OCCCn1c(Br)c(C#N)c2nc[nH]c(=O)c21 [1-1072],5.00 to 6.00
2,CC(C)OCCCn1c(-n2ccnc2)c(C#N)c2nc[nH]c(=S)c21 [6-0390],5.00 to 6.00
3,CC(C)OCCCn1c(N2CCC(CN)CC2)c(C#N)c2nc[nH]c(=S)c21 [6-0343],5.00 to 6.00
4,CCOCCCn1c(Cc2ccccc2)c(C#N)c2nc[nH]c(=O)c21 [1-0232],5.00 to 6.00
5,N#Cc1c(-c2ccccc2)n(CCNC(=O)c2cccs2)c2c(=O)[nH]cnc12 [2-0032],5.00 to 6.00
6,N#Cc1c(-c2ccccc2)n(CCC2OCCO2)c2c(=O)[nH]cnc12 [1-0299],5.00 to 6.00
7,CC(=O)c1ccc(-c2[nH]c3c(=O)[nH]cnc3c2C#N)cc1 [1-0063],5.00 to 6.00
8,COc1cccc(OC)c1-c1[nH]c2c(=S)[nH]cnc2c1C#N [1-0683],5.00 to 6.00
9,N#Cc1c(-c2sccc2Cl)n(CCNC(=O)c2cccnc2N)c2c(=S)[nH]cnc12 [2-1927],> 8.00
10,Cc1c(C#N)c2nc[nH]c(=O)c2n1CCCOC(C)C [1-0253],5.00 to 6.00
11,N#Cc1c(-c2ccc(C3CCCCC3)cc2)[nH]c2c(=S)[nH]cnc12 [1-0675],5.00 to 6.00
12,Cn1cccc1-c1c(C#N)c2nc[nH]c(=S)c2n1CCNC(=O)c1ccc(F)cc1 [2-0697],> 8.00
13,N#Cc1ccc(C(=O)NCCn2c(-c3ccccc3)c(C#N)c3nc[nH]c(=O)c32)cc1 [2-0016],5.00 to 6.00
14,COCCCn1c(Cc2ccccc2)c(C#N)c2nc[nH]c(=O)c21 [1-0226],5.00 to 6.00
15,N#Cc1c(-c2sccc2Cl)n(CCNC(=O)c2ccc3c(c2)OCO3)c2c(=S)[nH]cnc12 [2-0743],> 8.00
16,C#Cc1ccc(NC(=O)CCCn2c(-c3ccccc3)c(C#N)c3nc[nH]c(=S)c32)cc1 [3-0568],5.00 to 6.00
17,N#Cc1c(-c2ccccc2C(F)(F)F)[nH]c2c(=O)[nH]cnc12 [1-0056],5.00 to 6.00
18,C=CCN(C(=O)CCn1c(-c2ccccc2)c(C#N)c2nc[nH]c(=S)c21)C1CCCC1 [3-1808],5.00 to 6.00
19,CC(C)OCCCn1c(N2CCN(C)CC2)c(C#N)c2nc[nH]c(=S)c21 [6-0353],5.00 to 6.00
20,CN1CCN(C(=O)CCCn2c(-c3ccccc3)c(C#N)c3nc[nH]c(=S)c32)CC1 [3-0682],5.00 to 6.00
21,Cn1c(C2CCCCC2)c(C#N)c2nc[nH]c(=O)c21 [1-0941],5.00 to 6.00

row,SMILES,pIC50
1,COc1ccc(CCn2c(-c3ccccc3)c(C#N)c3nc[nH]c(=O)c32)cc1 [1-0362],5.00 to 6.00
2,CC(=O)c1ccc(-c2[nH]c3c(=O)[nH]cnc3c2C#N)s1 [1-0090],5.00 to 6.00
3,N#Cc1c(-c2ccco2)n(CCC(=O)N2CCC(C(=O)O)CC2)c2c(=S)[nH]cnc12 [3-0235],> 8.00
4,N#Cc1c(-c2ccco2)n(CCC(=O)NCc2cccnc2)c2c(=S)[nH]cnc12 [3-0137],> 8.00
5,N#Cc1c(-c2ccccc2)n(CCCc2nc(-c3ccccc3)no2)c2c(=S)[nH]cnc12 [1-0586],5.00 to 6.00
6,N#Cc1c(-c2ccccc2)n(CCC(=O)Nc2ccc(OC(F)(F)F)cc2)c2c(=S)[nH]cnc12 [3-1818],5.00 to 6.00
7,Cc1noc(C)c1C(=O)NCCCn1c(-c2ccccc2)c(C#N)c2nc[nH]c(=O)c21 [2-0117],5.00 to 6.00
8,COc1ccc(C(=O)NCCn2c(-c3sccc3Cl)c(C#N)c3nc[nH]c(=S)c32)cc1 [2-0598],> 8.00
9,N#Cc1c(-c2sccc2Cl)n(CCNC(=O)c2ccncc2)c2c(=S)[nH]cnc12 [2-1534],> 8.00
10,Cc1cccc(C(=O)NCCn2c(-c3cccn3C)c(C#N)c3nc[nH]c(=S)c32)c1N [2-0625],> 8.00
11,N#Cc1c(-c2ccccc2)n(CCCNC(=O)Cc2cccs2)c2c(=O)[nH]cnc12 [2-0147],5.00 to 6.00
12,N#Cc1c(CCc2ccccc2)n(CCCc2ccccc2)c2c(=S)[nH]cnc12 [1-0319],5.00 to 6.00
13,N#Cc1c(-c2ccccc2)n(CCNC(=O)c2cc(Cl)cc(Cl)c2)c2c(=S)[nH]cnc12 [2-0893],5.00 to 6.00
14,N#Cc1c(-c2ccccc2)n(CCNC(=O)c2ccc([N+](=O)[O-])cc2)c2c(=O)[nH]cnc12 [2-0018],5.00 to 6.00
15,CC(C)OCCCn1c(N2CCN(CCO)CC2)c(C#N)c2nc[nH]c(=S)c21 [6-0370],5.00 to 6.00
16,CCS(=O)(=O)c1ccc(-c2[nH]c3c(=O)[nH]cnc3c2C#N)cc1 [1-0077],5.00 to 6.00
17,CS(=O)(=O)N1CCC(C(=O)CCn2c(-c3ccccc3)c(C#N)c3nc[nH]c(=S)c32)C1 (stereo not shown) [5-0038],5.00 to 6.00
18,N#Cc1c(-c2ccccc2)n(CCCNC(=O)C(F)(F)F)c2c(=O)[nH]cnc12 [2-1947],5.00 to 6.00
19,N#Cc1c(-c2ccccc2)n(CC2CC2)c2c(=O)[nH]cnc12 [1-0274],5.00 to 6.00
20,Cc1ccsc1-c1c(C#N)c2nc[nH]c(=S)c2n1CCNC(=O)c1ccc(F)cc1 [2-0695],> 8.00
21,N#Cc1c(-c2ccccc2)n(CCN2C(=O)CCC2=O)c2c(=S)[nH]cnc12 [1-0499],5.00 to 6.00

row,SMILES,pIC50
1,N#Cc1c(-c2ccccc2)n(CCC(=O)C2CCCCC2)c2c(=S)[nH]cnc12 [5-0005],5.00 to 6.00
2,COCCCn1c(-c2ccccc2C)c(C#N)c2nc[nH]c(=O)c21 [1-1074],5.00 to 6.00
3,COc1ccc(C(=O)NCCn2c(-c3sccc3C)c(C#N)c3nc[nH]c(=S)c32)cc1 [2-0597],> 8.00
4,Cc1ccsc1-c1c(C#N)c2nc[nH]c(=S)c2n1CCNc1ncnc2ccccc12 [2-1946],> 8.00
5,C=CCn1c(C2CC2)c(C#N)c2nc[nH]c(=S)c21 [1-0760],5.00 to 6.00
6,N#Cc1c(-c2ccccc2)n(CCCOC(=O)c2cccc(Cl)c2)c2c(=O)[nH]cnc12 [2-0523],5.00 to 6.00
7,COc1ccc(C(=O)NCCn2c(-c3cccn3C)c(C#N)c3nc[nH]c(=S)c32)cc1 [2-0599],> 8.00
8,Cc1c(C#N)c2nc[nH]c(=S)c2n1Cc1ccco1 [1-0396],5.00 to 6.00
9,N#Cc1c(-c2ccccc2)n(CCCNC(=O)c2ccncc2)c2c(=O)[nH]cnc12 [2-0096],5.00 to 6.00
10,N#Cc1c(-c2ccccc2)n(CCCOC(=O)c2ccccc2)c2c(=O)[nH]cnc12 [2-0521],5.00 to 6.00
11,N#Cc1c(-c2cccc(N)c2)[nH]c2c(=O)[nH]cnc12 [1-0068],5.00 to 6.00
12,N#Cc1c(-c2sccc2Cl)n(CCNC(=O)c2ccccc2)c2c(=S)[nH]cnc12 [2-0561],> 8.00
13,N#Cc1c(-c2ccccc2)n(CCCNCc2ccc([N+](=O)[O-])cc2)c2c(=S)[nH]cnc12 [2-1772],5.00 to 6.00
14,CCOC(=O)c1cccc(-c2[nH]c3c(=S)[nH]cnc3c2C#N)c1 [1-0715],5.00 to 6.00
15,N#Cc1c(-c2ccccc2)n(CCc2ccc(Cl)cc2)c2c(=O)[nH]cnc12 [1-0349],5.00 to 6.00
16,CCOCCCn1c(CC(C)C)c(C#N)c2nc[nH]c(=O)c21 [1-0231],5.00 to 6.00
17,CN(C)c1ccccc1C(=O)NCCCn1c(-c2ccccc2)c(C#N)c2nc[nH]c(=S)c21 [2-1851],5.00 to 6.00
18,N#Cc1c(-c2sccc2Cl)n(CCNC(=O)c2ccc(O)cc2)c2c(=S)[nH]cnc12 [2-0790],> 8.00
19,COC(=O)c1ccc(C(=O)NCCCn2c(-c3ccccc3)c(C#N)c3nc[nH]c(=O)c32)cc1 [2-0092],5.00 to 6.00
